Source: the supplement of paper PMC11006884
The list shows a part of the results, in another mix than the full data. This is a noisy data set.

Protein sequences, listed by entry. Tags and fused reporters are not part of them. Lines headed by an entry give the natural chain unless they say otherwise; changes in a name come on top.
UniProt Q96AG4: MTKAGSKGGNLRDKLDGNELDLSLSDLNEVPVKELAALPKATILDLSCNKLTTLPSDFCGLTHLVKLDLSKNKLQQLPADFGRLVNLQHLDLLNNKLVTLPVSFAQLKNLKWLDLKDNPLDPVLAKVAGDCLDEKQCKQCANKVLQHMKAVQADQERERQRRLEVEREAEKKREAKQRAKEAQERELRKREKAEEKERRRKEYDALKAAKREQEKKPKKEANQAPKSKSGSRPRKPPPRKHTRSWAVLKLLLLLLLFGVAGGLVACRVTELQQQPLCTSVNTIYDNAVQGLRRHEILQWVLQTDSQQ
UniProt Q93008, whole entry, looked up: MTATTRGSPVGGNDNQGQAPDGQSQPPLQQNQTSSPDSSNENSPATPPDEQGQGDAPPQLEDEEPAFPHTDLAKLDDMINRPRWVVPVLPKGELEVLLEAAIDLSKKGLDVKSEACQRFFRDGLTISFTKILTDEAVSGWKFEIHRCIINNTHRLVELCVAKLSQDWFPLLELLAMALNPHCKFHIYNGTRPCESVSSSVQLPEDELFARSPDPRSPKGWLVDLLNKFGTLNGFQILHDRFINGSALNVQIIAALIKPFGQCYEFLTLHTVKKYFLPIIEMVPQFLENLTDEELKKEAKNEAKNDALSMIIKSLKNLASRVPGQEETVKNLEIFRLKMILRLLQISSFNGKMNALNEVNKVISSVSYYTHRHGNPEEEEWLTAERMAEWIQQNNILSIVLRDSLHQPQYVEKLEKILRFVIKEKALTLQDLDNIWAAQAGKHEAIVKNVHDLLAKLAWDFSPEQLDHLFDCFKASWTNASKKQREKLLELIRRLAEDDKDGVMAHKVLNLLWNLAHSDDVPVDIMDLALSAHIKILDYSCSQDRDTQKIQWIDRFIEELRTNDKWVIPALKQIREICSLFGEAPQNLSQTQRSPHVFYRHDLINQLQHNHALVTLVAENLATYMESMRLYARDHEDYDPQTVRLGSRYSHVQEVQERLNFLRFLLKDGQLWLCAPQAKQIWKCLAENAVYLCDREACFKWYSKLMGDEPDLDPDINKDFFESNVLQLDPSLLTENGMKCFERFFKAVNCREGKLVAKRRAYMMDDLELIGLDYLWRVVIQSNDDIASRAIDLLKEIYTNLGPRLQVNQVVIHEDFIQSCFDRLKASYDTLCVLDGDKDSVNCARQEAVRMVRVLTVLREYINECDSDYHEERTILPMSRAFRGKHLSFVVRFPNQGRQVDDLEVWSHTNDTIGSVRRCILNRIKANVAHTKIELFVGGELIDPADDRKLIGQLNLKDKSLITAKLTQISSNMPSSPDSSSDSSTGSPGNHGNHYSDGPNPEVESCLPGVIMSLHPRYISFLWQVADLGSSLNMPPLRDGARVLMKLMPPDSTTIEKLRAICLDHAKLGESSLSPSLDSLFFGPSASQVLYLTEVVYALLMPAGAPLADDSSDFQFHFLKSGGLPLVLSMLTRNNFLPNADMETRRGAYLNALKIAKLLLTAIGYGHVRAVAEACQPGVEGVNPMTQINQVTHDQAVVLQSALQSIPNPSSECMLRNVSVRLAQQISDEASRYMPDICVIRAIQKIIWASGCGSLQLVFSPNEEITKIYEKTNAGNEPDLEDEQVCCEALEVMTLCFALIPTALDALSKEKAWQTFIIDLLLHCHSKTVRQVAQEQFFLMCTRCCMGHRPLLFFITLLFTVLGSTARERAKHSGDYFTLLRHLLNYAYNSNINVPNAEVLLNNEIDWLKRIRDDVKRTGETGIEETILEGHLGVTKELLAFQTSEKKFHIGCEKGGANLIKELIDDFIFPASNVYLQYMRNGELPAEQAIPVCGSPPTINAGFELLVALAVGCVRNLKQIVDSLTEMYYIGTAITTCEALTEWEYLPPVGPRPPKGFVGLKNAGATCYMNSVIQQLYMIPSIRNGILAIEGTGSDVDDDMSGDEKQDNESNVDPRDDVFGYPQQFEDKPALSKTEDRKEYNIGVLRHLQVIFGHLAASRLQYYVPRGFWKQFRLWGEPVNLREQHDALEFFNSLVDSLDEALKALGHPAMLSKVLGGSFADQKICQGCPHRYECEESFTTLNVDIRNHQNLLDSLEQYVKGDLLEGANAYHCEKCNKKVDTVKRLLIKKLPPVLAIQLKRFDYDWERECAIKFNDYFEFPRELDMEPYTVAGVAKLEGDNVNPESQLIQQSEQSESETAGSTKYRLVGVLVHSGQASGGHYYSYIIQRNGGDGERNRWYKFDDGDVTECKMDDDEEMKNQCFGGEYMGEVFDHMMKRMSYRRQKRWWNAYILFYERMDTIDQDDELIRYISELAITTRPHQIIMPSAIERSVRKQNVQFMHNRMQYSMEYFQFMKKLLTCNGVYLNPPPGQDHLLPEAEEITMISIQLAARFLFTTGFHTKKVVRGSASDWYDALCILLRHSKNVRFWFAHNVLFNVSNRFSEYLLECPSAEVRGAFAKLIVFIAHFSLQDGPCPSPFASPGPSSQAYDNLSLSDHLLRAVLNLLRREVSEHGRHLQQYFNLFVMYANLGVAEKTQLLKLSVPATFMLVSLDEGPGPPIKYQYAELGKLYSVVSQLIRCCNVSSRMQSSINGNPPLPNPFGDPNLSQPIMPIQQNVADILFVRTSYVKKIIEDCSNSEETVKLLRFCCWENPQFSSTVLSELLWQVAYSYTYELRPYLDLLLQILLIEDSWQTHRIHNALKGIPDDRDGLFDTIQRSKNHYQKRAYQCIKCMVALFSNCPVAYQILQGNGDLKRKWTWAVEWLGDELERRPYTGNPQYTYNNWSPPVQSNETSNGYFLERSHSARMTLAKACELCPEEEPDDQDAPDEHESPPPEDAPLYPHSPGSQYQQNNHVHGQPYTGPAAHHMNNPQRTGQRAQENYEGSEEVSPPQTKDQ
UniProt Q92564: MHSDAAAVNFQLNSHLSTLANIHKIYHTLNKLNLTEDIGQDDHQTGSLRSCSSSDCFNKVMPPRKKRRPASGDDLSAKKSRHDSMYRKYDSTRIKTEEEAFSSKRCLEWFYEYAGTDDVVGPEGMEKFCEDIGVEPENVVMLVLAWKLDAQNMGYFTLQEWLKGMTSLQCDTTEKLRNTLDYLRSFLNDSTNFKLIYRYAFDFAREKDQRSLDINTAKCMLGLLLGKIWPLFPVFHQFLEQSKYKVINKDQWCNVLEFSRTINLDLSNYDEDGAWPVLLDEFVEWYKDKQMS
UniProt Q96B01: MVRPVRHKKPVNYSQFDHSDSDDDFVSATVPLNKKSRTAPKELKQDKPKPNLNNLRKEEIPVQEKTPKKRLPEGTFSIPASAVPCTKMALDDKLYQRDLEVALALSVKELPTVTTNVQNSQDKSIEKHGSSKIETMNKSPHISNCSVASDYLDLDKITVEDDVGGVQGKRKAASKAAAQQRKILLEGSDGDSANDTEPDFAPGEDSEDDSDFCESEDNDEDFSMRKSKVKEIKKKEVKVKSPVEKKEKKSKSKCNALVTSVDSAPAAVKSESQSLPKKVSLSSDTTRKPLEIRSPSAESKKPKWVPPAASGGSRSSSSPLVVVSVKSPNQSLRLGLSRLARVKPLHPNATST
UniProt Q96EZ8, whole entry: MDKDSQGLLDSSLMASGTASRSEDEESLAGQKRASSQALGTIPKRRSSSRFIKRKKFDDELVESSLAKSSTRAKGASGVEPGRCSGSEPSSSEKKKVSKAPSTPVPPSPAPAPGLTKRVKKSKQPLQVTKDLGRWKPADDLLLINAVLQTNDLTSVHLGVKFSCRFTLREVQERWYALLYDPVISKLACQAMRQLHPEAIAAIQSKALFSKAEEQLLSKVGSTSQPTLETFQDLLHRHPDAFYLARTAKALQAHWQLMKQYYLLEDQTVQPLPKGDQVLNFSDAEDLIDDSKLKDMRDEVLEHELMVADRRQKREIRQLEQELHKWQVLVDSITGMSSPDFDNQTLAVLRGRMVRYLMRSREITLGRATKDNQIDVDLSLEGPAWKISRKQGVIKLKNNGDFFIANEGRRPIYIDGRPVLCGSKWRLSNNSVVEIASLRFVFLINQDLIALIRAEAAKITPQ
UniProt Q92692, whole entry: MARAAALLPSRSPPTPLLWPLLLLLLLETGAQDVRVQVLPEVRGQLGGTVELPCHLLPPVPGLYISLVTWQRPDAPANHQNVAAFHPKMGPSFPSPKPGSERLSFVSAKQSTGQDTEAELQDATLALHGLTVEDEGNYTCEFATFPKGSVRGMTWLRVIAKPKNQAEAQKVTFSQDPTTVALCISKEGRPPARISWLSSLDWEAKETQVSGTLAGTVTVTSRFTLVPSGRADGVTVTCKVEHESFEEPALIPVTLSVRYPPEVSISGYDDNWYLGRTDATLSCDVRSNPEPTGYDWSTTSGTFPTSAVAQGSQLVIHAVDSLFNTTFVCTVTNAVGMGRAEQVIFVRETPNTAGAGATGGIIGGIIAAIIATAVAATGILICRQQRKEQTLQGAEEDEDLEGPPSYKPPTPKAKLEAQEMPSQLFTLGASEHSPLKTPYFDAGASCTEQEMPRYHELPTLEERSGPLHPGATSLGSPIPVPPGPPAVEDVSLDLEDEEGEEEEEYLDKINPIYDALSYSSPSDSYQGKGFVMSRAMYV
UniProt Q96GX9: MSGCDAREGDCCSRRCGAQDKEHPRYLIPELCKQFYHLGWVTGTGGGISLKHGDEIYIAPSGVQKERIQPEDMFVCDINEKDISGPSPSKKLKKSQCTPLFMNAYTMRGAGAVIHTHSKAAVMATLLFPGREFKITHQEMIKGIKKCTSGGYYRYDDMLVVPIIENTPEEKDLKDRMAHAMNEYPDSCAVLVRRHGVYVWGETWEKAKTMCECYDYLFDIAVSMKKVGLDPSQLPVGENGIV
UniProt Q93009, whole entry, looked up: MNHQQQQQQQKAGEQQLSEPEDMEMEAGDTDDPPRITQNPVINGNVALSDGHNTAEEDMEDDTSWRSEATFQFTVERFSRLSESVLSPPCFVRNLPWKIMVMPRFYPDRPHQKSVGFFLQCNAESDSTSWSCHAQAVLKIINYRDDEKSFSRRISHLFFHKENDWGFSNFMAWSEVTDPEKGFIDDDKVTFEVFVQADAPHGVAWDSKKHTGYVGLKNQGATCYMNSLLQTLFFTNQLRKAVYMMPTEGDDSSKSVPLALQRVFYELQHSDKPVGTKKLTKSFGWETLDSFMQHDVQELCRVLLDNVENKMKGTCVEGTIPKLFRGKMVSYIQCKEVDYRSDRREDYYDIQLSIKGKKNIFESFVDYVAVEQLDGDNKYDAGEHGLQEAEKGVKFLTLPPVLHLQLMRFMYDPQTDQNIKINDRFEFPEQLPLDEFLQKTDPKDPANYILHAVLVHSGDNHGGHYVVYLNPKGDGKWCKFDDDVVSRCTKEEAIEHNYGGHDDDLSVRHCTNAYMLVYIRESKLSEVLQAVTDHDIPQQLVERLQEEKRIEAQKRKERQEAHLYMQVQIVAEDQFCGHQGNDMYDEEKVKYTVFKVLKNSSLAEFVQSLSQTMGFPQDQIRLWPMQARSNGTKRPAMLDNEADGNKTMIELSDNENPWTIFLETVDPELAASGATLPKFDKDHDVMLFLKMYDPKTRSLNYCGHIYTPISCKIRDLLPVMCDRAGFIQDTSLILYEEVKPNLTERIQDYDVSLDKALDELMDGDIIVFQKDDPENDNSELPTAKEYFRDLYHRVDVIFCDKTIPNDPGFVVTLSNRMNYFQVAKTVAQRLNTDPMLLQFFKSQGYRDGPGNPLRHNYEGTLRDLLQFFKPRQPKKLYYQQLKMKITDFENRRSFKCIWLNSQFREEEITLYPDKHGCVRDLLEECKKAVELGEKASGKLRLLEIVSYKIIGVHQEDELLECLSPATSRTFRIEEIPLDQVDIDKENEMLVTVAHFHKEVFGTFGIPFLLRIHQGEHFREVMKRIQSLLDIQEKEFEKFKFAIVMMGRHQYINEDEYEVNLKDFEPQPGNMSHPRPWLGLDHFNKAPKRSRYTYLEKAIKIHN
UniProt Q96CS3: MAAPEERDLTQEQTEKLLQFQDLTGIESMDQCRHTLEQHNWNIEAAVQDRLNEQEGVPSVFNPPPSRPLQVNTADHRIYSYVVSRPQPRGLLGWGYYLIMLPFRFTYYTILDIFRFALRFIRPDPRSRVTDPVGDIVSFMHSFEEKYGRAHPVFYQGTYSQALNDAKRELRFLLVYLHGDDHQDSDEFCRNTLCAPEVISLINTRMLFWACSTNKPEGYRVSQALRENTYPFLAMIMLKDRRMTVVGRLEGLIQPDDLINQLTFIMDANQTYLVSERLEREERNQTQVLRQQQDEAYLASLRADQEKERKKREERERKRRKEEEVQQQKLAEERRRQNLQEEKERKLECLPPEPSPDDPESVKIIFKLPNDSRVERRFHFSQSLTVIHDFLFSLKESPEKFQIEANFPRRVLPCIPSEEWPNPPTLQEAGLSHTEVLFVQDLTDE

Compound: COC(=O)/C=C/c1ccccc1 [methyl cinnamate]
Assay: log2 ratio of iodoacetamide-alkyne labeling of the cysteine site, DMSO over compound (competition); higher = stronger covalent engagement of the cysteine by the compound, active = 1 or more
Conditions: 500 µM; treatment time 1 h; system: HEK293T cell lysate
Method in brief: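 After 1 h at ambient temperature with vehicle or electrophile (500 µM), HEK293T lysate (2 mg/mL) was labelled for 1 h with iodoacetamide alkyne and clicked to sCIP-TMT reagents. Pooled samples were trypsin-digested overnight at 37 °C, streptavidin-enriched, acid-eluted and analysed by Orbitrap Eclipse LC-MS/MS with FAIMS, then quantified in FragPipe over three replicates with duplicate channels. A cysteine's log2 competition ratio is its mean control-channel over mean compound-channel reporter intensity. Cysteines quantified in only one replicate were not included.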

log2 ratio of iodoacetamide-alkyne labeling, inactive:
RPL36AL C15 (UniProt Q969Q0) 0.0617
POM121 C307 (UniProt Q96HA1) 0.23
LRRC59 C277 (UniProt Q96AG4) -0.0337
USP9X C1566 (UniProt Q93008) 0.146
DCUN1D4 C253 (UniProt Q92564) 0.195
UniProt Q92841_C298 0.203
RAD51AP1 C254 (UniProt Q96B01) 0.306
UniProt Q969X6_C21 -0.0137
MCRS1 C84 (UniProt Q96EZ8) 0.389
UniProt Q92841_C319 0.127
NECTIN2 C446 (UniProt Q92692) 0.0831
APIP C97 (UniProt Q96GX9) 0.152
USP7 C961 (UniProt Q93009) 0.264
FAF2 C32 (UniProt Q96CS3) -0.0289
ARPC1A C13 (UniProt Q92747) 0.252
